Data from US7141417 (THOMAS JEFFERSON UNIVERSITY, dated 2006).
These are yes or no findings as the source states them, for the method shown. For some assays here: In cells and extracts the contact can be indirect. Some entries that bind do so weakly or less than the wild type. For some assays here: Sequences can lack the tags named with a protein. Blank lines part the entries; values can stand above or below the molecule they belong to.

Sequences of proteins named here, by UniProt entry; tags and fusion partners are left off. A change or cut given only in a name is not applied to a line headed by its entry. A line that says so, or that is headed by a name, gives the form on record, which may keep a tag or linker. Residues count along the entry.
UniProt P26641: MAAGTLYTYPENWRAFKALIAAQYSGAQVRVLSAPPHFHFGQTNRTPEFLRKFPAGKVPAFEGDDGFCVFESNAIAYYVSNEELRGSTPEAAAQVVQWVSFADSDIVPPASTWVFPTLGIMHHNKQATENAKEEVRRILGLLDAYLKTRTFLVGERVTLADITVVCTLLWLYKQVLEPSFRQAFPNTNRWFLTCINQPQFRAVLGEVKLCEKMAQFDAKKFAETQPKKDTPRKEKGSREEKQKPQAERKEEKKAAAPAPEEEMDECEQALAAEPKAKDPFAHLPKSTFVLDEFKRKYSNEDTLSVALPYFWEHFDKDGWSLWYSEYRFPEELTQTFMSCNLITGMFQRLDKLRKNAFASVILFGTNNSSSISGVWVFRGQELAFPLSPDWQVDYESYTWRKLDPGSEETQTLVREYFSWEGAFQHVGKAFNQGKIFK
GST fused with EF1-γ(N): residues 1-153 of P26641

Assays:
[1] = biological target: GST fused with truncated (40 kilodalton) Fez1 protein (human) [GST: P08515]; test: in vitro binding assay, GST fusion on glutathione-agarose beads, ^35S-labeled partner, SDS-PAGE; buffers A and B
[2] = biological target: fusion protein comprising the GAL4 protein DNA binding domain fused with full length Fez1 protein (human); test: yeast two hybrid (strain Y190), β-galactosidase assay
[3] = biological target: GST fused with EF1-γ(N) (human) (UniProt P26641); test: in vitro binding of ^35S-labeled Fez1 with GST fused with EF1-γ(N), buffer B
[4] = biological target: GST fused with EF1-γ(N) (human) (UniProt P26641); test: in vitro binding assay (figure legend); by paragraph 373 the labeled partner was Fez1 and EF1-γ(N) was GST-fused
[5] = biological target: GST fused with truncated (40 kilodalton) Fez1 protein (human) [GST: P08515]; test: in vitro binding assay (figure legend)
[6] = biological target: GST fused with truncated (40 kilodalton) Fez1 protein (human) [GST: P08515]; test: in vitro binding of ^35S-labeled truncated Fez1 with GST-fused truncated Fez1, buffer B
[7] = biological target: EXP tag-fused EF1-γ protein (human) (UniProt P26641); test: co-immunoprecipitation from lysate of co-transfected HeLaS3 cells, immunoblot
[8] = biological target: glutathione S-transferase (GST) protein [GST: P08515]; test: in vitro binding of ^35S-labeled in vitro translated EF to GST fusion/GST on glutathione-agarose beads

binding [1]: binds
Molecule: ^35S-methionine-labeled in vitro translated EF1-γ protein (from UniProt P26641 1-437)

binding [3]: binds | binding [4]: binds | binding [5]: binds | binding [6]: binds
B1: ^35S-methionine-labeled in vitro translated truncated 40 kDa Fez1 protein (protein)
chain: MGSVSSLISGHSFHSKHCRASQYKLRKSSHLKKLNRYSDGLLRFGFSQDSGHGKSSSKMGKSEDFFYIKVSQKARGSHHPDYTALSSGDLGGQAGVDFDPSTPPKLMPFSNQLEMGSEKGAVRPTAFKPVLPRSGAILHSSPESASHQLHPAPPDKPKEQELKPGLCSGALSDSGRNSMSSLPTHSTSSSYQLDPLVTPVGPTSRFGGSAHNITQGIVLQDSNMMSLKALSFSDGGSKLGHSNKADKGPSCVRSPISTDECSIQELEQKLLEREGALQKLQRSFEEKELASSLAYEERPRRCRDELEGPEPKGGNKLKQASQKSQRAQQVLHLQVLQLQQEKRQLRQELESLMKEQDLLETKLRSYEREKTSFGPA
modifications: ^35S-methionine label

binding [7]: binds
B2: V5 tag-fused Fez1 protein (protein, not shown: small tags and cut ends)
chain: MGSVSSLISGHSFHSKHCRASQYKLRKSSHLKKLNRYSDGLLRFGFSQDSGHGKSSSKMGKSEDFFYIKVSQKARGSHHPDYTALSSGDLGGQAGVDFDPSTPPKLMPFSNQLEMGSEKGAVRPTAFKPVLPRSGAILHSSPESASHQLHPAPPDKPKEQELKPGLCSGALSDSGRNSMSSLPTHSTSSSYQLDPLVTPVGPTSRFGGSAHNITQGIVLQDSNMMSLKALSFSDGGSKLGHSNKADKGPSCVRSPISTDECSIQELEQKLLEREGALQKLQRSFEEKELASSLAYEERPRRCRDELEGPEPKGGNKLKQASQKSQRAQQVLHLQVLQLQQEKRQLRQELESLMKEQDLLETKLRSYEREKTSFGPALEETQWEVCQKSGEISLLKQQLKESQTEVNAKASEILGLKAQLKDTRGKLEGLELRTQDLEGALRTKGLELEVCENELQRKKNEAELLREKVNLLEQELQELRAQAALARDMGPPTFPEDVPALQRELERLRAELREERQGHDQMSSGFQHERLVWKEEKEKVIQYQKQLQQSYVAMYQRNQRLEKALQQLARGDSAGEPLEVDLEGADIPYEDIIATEI

Second part, the molecule before the results:

Molecule: EF1-γ clone of a human testes cDNA expression library fused with the GAL4 protein transcription activation domain (pACT2 vector) (from UniProt P26641 1-437)
binding [2]: binds

B3: ^35S-methionine-labeled in vitro translated EF1-β (protein, UniProt P24534 1-225, looked up)
chain: MGFGDLKSPAGLQVLNDYLADKSYIEGYVPSQADVAVFEAVSSPPPADLCHALRWYNHIKSYEKEKASLPGVKKALGKYGPADVEDTTGSGATDSKDDDDIDLFGSDDEEESEEAKRLREERLAQYESKKAKKPALVAKSSILLDVKPWDDETDMAKLEECVRSIQADGLVWGSSKLVPVGYGIKKLQIQCVVEDDKVGTDMLEEQITAFEDYVQSMDVAAFNKI
modifications: ^35S-methionine label
binding [8]: binds
